# Drug screen on melanoma cell lines: apoptosis marker

Values as published with doi:10.1371/journal.pone.0140310, rounded.

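Human melanoma cell lines in 1,536-well plates were treated with two drugs together for 72 h, then fixed, stained and imaged. Values are the share of nuclei positive for cleaved PARP as a percentage of the same share in the DMSO control: 100 is the control level, higher means more apoptosis. Every drug was used at one fixed concentration, the higher of two screened. These are primary screening values without error estimates. The marker varies much from line to line, for technical or biological reasons.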
This is part of the screen, not chosen by result.

Compounds and concentrations:
crizotinib (1 µM): C[C@@H](Oc1cc(-c2cnn(C3CCNCC3)c2)cnc1N)c1c(Cl)ccc(F)c1Cl
vismodegib (5 µM): CS(=O)(=O)c1ccc(C(=O)Nc2ccc(Cl)c(-c3ccccn3)c2)c(Cl)c1
nutlin-3 (0.5 µM): COc1ccc(C2=N[C@@H](c3ccc(Cl)cc3)[C@@H](c3ccc(Cl)cc3)N2C(=O)N2CCNC(=O)C2)c(OC(C)C)c1
lestaurtinib (0.02 µM): C[C@]12O[C@H](C[C@]1(O)CO)n1c3ccccc3c3c4c(c5c6ccccc6n2c5c31)CNC4=O
FH535 (5 µM): Cc1cc([N+](=O)[O-])ccc1NS(=O)(=O)c1cc(Cl)ccc1Cl
nilotinib (1 µM): Cc1cn(-c2cc(NC(=O)c3ccc(C)c(Nc4nccc(-c5cccnc5)n4)c3)cc(C(F)(F)F)c2)cn1
BI-78D3 (1 µM): O=c1[nH]nc(Sc2ncc([N+](=O)[O-])s2)n1-c1ccc2c(c1)OCCO2
sunitinib (2 µM): CCN(CC)CCNC(=O)c1c(C)[nH]c(/C=C2\C(=O)Nc3ccc(F)cc32)c1C
A-769662 (10 µM): N#Cc1c(O)c2c(-c3ccc(-c4ccccc4O)cc3)csc2[nH]c1=O
GW441756 (2 µM): Cn1cc(/C=C2\C(=O)Nc3cccnc32)c2ccccc21

| # | Pair | WM451Lu |
|---|---|---|
| 1 | BI-78D3 + lestaurtinib | 82.7 |
| 2 | lestaurtinib + FH535 | 329 |
| 3 | A-769662 + vismodegib | 81.0 |
| 4 | vismodegib + GW441756 | 29.6 |
| 5 | sunitinib + nutlin-3 | 78.4 |
| 6 | GW441756 + nutlin-3 | 87.8 |
| 7 | lestaurtinib + sunitinib | 162 |
| 8 | nilotinib + BI-78D3 | 277 |
| 9 | BI-78D3 + nutlin-3 | 101 |
| 10 | A-769662 + crizotinib | 52.8 |
| 11 | nilotinib + GW441756 | 21.3 |
| 12 | A-769662 + GW441756 | 27.2 |
| 13 | A-769662 + nilotinib | 97.7 |
| 14 | nilotinib + crizotinib | 245 |
| 15 | crizotinib + FH535 | 76.8 |
| 16 | vismodegib + nutlin-3 | 127 |
| 17 | GW441756 + sunitinib | 671 |
| 18 | FH535 + nutlin-3 | 32.6 |
| 19 | BI-78D3 + crizotinib | 46.7 |
| 20 | nilotinib + nutlin-3 | 147 |
| 21 | vismodegib + crizotinib | 108 |
| 22 | BI-78D3 + FH535 | 61.9 |
| 23 | crizotinib + sunitinib | 219 |
| 24 | FH535 + nilotinib | 135 |
| 25 | vismodegib + lestaurtinib | 72.5 |
| 26 | sunitinib + A-769662 | 397 |
| 27 | vismodegib + FH535 | 128 |

Once more, the final 2:

Pair,WM451Lu
sunitinib + A-769662,397
vismodegib + FH535,128